From PubChem BioAssay (NCATS)
Several values for one entry are separate records, joined by “and”; a condition that tells them apart may be missing. Equal values may be shown once. The inconclusive results got no clear call from the source; some entries with a clear call stand among them for comparison. For some of these results: Potencies of inconclusive entries are doubtful fits and often do not repeat. For some of these results: A note “side channel” means that the fit belongs to a control or component signal, not to the main read-out. Activity calls are given as the source filed them. Unless noted, the call rests on the fitted dose curve; in most records, active means well fitted curve in the direction sought with a large enough effect; inconclusive means small, poorly fitted or top-dose-only effect, or another doubt; inactive means no such curve, though single readings can be large; an effect the other way counts as inactive or inconclusive.

Protein sequences, listed by entry. Tags and fused reporters are not part of them. Lines headed by an entry give the natural chain unless they say otherwise; changes in a name come on top.
UniProt P10828: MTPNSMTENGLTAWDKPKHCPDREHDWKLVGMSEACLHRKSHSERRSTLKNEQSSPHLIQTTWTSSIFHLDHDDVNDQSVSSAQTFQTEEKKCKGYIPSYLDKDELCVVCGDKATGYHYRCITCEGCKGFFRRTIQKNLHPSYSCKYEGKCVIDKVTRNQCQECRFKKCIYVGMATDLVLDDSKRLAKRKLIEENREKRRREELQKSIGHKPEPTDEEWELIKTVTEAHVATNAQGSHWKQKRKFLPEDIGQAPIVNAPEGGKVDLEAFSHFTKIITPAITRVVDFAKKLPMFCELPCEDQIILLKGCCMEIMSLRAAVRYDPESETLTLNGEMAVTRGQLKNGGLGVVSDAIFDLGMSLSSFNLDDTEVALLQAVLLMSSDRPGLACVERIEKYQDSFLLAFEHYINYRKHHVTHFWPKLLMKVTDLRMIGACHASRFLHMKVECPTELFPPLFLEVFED
UniProt P19793: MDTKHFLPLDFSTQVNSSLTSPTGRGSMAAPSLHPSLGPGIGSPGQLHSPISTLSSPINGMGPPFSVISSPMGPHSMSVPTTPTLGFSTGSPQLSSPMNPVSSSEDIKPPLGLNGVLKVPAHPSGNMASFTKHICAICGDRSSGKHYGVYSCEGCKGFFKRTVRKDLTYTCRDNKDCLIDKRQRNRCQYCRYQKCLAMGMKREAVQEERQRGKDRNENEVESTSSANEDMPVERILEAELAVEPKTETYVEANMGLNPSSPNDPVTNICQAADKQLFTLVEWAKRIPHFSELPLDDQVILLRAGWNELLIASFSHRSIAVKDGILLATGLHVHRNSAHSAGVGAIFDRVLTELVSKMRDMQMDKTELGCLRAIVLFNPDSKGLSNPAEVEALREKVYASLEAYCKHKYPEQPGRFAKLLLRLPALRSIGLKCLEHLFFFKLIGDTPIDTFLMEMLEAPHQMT
UniProt P08659, whole entry, looked up: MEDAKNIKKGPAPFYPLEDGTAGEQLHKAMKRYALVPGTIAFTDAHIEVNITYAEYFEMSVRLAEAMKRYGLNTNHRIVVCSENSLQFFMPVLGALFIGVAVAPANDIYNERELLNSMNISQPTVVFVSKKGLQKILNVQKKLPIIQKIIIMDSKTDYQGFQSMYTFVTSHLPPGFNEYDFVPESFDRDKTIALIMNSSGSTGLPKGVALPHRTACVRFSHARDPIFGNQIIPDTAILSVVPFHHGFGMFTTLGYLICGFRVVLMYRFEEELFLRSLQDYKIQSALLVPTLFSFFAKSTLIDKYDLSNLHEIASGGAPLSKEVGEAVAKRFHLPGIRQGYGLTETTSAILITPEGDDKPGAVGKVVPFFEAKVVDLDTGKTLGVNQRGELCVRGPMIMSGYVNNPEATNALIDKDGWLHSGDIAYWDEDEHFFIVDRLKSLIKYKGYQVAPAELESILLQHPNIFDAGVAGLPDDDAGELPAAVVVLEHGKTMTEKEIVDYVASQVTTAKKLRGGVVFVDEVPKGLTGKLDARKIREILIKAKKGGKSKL
UniProt O94925: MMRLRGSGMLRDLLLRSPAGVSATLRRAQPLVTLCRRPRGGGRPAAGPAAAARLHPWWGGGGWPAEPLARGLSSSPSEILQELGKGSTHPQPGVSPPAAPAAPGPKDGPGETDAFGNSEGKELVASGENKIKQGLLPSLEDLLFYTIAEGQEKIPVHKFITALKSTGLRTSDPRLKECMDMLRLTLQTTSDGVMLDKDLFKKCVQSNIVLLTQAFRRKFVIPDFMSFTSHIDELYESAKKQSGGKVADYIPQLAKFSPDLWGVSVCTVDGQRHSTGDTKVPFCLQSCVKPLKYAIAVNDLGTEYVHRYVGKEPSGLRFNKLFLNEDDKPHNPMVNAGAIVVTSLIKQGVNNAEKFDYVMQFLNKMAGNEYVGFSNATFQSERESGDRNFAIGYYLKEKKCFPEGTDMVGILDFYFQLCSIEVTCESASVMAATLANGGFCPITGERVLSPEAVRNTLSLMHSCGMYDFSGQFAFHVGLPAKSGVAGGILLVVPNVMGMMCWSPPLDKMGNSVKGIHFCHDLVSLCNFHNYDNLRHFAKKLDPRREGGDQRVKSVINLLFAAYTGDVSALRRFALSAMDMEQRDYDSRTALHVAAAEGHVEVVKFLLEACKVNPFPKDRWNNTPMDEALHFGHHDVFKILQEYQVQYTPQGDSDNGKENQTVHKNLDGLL

What was measured:
[1] = molecular target: Thyroid hormone receptor beta (Homo sapiens) (UniProt P10828); assay: qHTS assay for small molecule agonists of thyroid hormone receptor beta signaling (AID 588545; calls by dose curve; further: potency means the concentration at half of the fitted maximal effect); conditions: TR-UAS-bla GripTite HEK 293, beta-lactamase ratio, agonist mode, 18 h; activation: at 76.7 µM, percent of T3 response, DMSO as zero
How it was run: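 Agonist activity was read as beta-lactamase CCF4 fluorescence (405 ex, 460/530 em), scaled between DMSO (0%) and 10 nM T3 (100%), then Hill-fitted for EC50 and efficacy. HEK 293 TR-UAS-bla cells in 2% charcoal/dextran FBS medium were exposed 18 h at 37 C.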

[2] = molecular target: Retinoic acid receptor RXR-alpha (Homo sapiens) (UniProt P19793); assay: qHTS assay for small molecule antagonists of retinoid X receptor alpha signaling (AID 588546; active means well fitted inhibition curve with a large enough effect in the signal ratio, with a control signal flat, not every such curve was filed as active; inconclusive means small, poorly fitted or top-dose-only effect, or effect the other way, or a change in a side signal; inactive means no such curve, though single readings can be large or run the other way; the % refers to the signal ratio;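 further: cells stimulated with 9-cis-retinoic acid as agonist; on the % scale 0 is the no-effect control and ±100 the full control effect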); conditions: HEK293T RXRa-UAS-bla, beta-lactamase ratio, antagonist mode
How it was run: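 Beta-lactamase reporter inhibition, read as CCF4 fluorescence ratio (ex 405, em 460/530 nm) after 2 h at RT. HEK293T UAS-bla cells, 2500/well, were stimulated with 9-cis-RA at 500 or 100 nM final alongside test compound for 18 h at 37 C.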

[3] = molecular target: Retinoic acid receptor RXR-alpha (Homo sapiens) (UniProt P19793); assay: qHTS assay for small molecule agonists of retinoid X receptor alpha signaling (AID 588544; calls by dose curve; further: potency means the concentration at half of the fitted maximal effect); conditions: HEK293T RXRa-UAS-bla, beta-lactamase reporter, 18 h; activation: at 76.7 µM (top of the series) unless noted
[4] = S16 Schwann cell viability assay (CellTiter-Glo assay) (AID 624031); further: nearly all actives have a fitted effect of over 70% in size; further: potency means the concentration at half of the fitted maximal effect
How it was run: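 Concentration-effect curves come from CellTiter-Glo luminescence of S16 rat Schwann cells after 24 h compound exposure. Each reading was normalized to DMSO wells (0%) and wells without cells, and curves were ranked by r2 and response magnitude.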

[5] = molecular target: Thyroid hormone receptor beta (Homo sapiens) (UniProt P10828); assay: qHTS assay for small molecule antagonists of thyroid hormone receptor beta signaling (AID 588547; active means well fitted inhibition curve with a large enough effect in the signal ratio, with a control signal flat, not every such curve was filed as active; inconclusive means small, poorly fitted or top-dose-only effect, or effect the other way, or a change in a side signal; the % refers to the signal ratio; further: potency means the concentration at half of the fitted maximal effect;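 on activity change % (negative = inhibition): cells stimulated with 0.4 nM T3 agonist during compound exposure; on the % scale 0 is the no-effect control and ±100 the full control effect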); conditions: TR-UAS-bla HEK293, beta-lactamase ratio, antagonist mode, 18 h
How it was run: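 TR-UAS-bla GripTite HEK293 cells in 2% charcoal/dextran FBS medium were preincubated 4 h at 37 C, given compound (0.59 nM to 92 uM) plus 0.4 nM T3 (final) for 18 h, then CCF4 for 2 h at RT; Hill fit gave IC50.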

[6] = S16 Schwann cell PMP22 intronic element firefly luciferase assay (AID 624032); further: nearly all actives have a fitted effect of over 30% in size; further: potency means the concentration at half of the fitted maximal effect
How it was run: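 Rat S16 Schwann cells stably carrying a PMP22 intronic element-driven Fluc reporter were seeded overnight, then exposed to compounds for 24 h at 37 °C. Luminescence was normalized to PTC124 (positive control) and DMSO (0% activity).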

[7] = S16 Schwann cell PMP22 intronic element beta-lactamase assay (AID 624044; calls by dose curve; further: nearly all actives have a fitted effect of over 15% in size; further: potency means the concentration at half of the fitted maximal effect;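 on ratio activity, negative = inhibition: 0% = DMSO and -100% = potassium clavulanate positive control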); conditions: S16 rat Schwann cells, PMP22 element beta-lactamase FRET, 24 h; ratio activity, negative = inhibition: at 38.3 µM (top of the series) unless noted
How it was run: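 Beta-lactamase reporter under a PMP22 intronic regulatory element in stable S16 rat Schwann cells; 24 h compound exposure. 460 nm blue signal normalized between DMSO (0%) and potassium clavulanate, with 535 nm FRET tracking viability; curves classed by r2 and response.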

[8] = molecular target: Luciferin 4-monooxygenase (Photinus pyralis) (UniProt P08659); assay: Biochemical firefly luciferase enzyme assay for NPC (AID 624030); further: nearly all actives have a fitted effect of over 70% in size; further: potency means the concentration at half of the fitted maximal effect
How it was run: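 Counter-screen for direct inhibition of the luciferase enzyme by approved-drug library compounds, run at 10 nM enzyme in 50 mM Tris acetate (final). Luminescence was read within 5 min of enzyme-buffer addition and normalized to PTC124 versus DMSO (0%).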

[9] = molecular target: Glutaminase kidney isoform, mitochondrial (Homo sapiens) (UniProt O94925); assay: qHTS for Inhibitors of Glutaminase (GLS): LOPAC Validation (AID 624146); further: nearly all actives have a fitted effect of over 60% in size; further: potency means the concentration at half of the fitted maximal effect
How it was run: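 Human kidney-isoform GLS in 45 mM KH2PO4 pH 8.2, 0.02% Tween-20, with compound, started with 1mM L-Glutamine (added stock). Glutamate oxidase/HRP/Amplex red coupled fluorescence read at start and after 30 min at RT.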

Q: With `O=c1[nH]c(=O)n(Cl)c(=O)n1Cl` as the molecule, how does the activation [1] read?
A: inactive: -7.57%

Q: What about the max response [2] of the same molecule?
A: inconclusive: -23.5%

Q: What does the source list for `Oc1cc(Cl)c(Cl)cc1Cl`?
A: Potency [3]: inconclusive: 35.5 µM [activator, partial curve]; Potency [4]: inconclusive: 0.287 µM [cytotoxic, full curve, poor fit]

Q: For `Nc1ccccc1`, which activity change % (negative = inhibition) [5] is on record?
A: inactive: -1.42%

Q: Which activation [1] does the source give for `NCC(O)c1ccc(O)cc1` (stereo not drawn) here?
A: inconclusive: -10.9%

Q: And the Potency [5]?
A: inconclusive: 22.4 µM [side channel, falling, partial curve, poor fit]

Q: What does the source list for `CCOP(=S)(OCC)Oc1cc(C)nc(C(C)C)n1`?
A: activation [1]: inactive: -19.4% and inactive: -4.03%; Potency [4]: inactive

Q: With `C=CC(=O)NCNC(=O)C=C` as the molecule, how does the Potency [1] read?
A: inconclusive: 0.112 µM [side channel, falling, full curve, poor fit]

Q: What about the activation [1] of the same molecule?
A: inconclusive: -4.27%

Q: For `C[C@]12CCC(=O)C(O)=C1CC[C@@H]1[C@@H]2CC[C@]2(C)C(=O)CC[C@@H]12`, which Potency [1] is on record?
A: inconclusive: 35.5 µM [side channel, rising, single point]

Q: For `O=[N+]([O-])c1c(Cl)c(Cl)cc(Cl)c1Cl`, which activation [1] is on record?
A: inactive: -13.4%

Q: What about the max response [2] of the same molecule?
A: inactive: 6.87%

Q: Which Potency [1] does the source give for `Nc1c(Cl)c(Cl)c(Cl)c(Cl)c1Cl` here?
A: inconclusive: 0.0045 µM [side channel, rising, full curve, poor fit]

Q: For `c1cc2ccc3cccc4ccc(c1)c2c34`, which Potency [5] is on record?
A: inconclusive: 0.631 µM [cytotoxic, side channel, full curve, poor fit]

Q: For `CCCCCCCCc1ccc(O)cc1`, which activation [1] is on record?
A: inconclusive: -19.4%

Q: And the max response [2]?
A: inconclusive: -55.3%

Q: What does the source list for `C[C@H]1C(=O)O[C@@H]2CCN3CC=C(COC(=O)[C@](C)(O)[C@]1(C)O)[C@H]23`?
A: Potency [1]: inconclusive: 2.51 µM [side channel, falling, full curve, poor fit]; Potency [5]: inconclusive: 0.0011 µM [cytotoxic, side channel, full curve, poor fit]; Potency [6]: inactive

Q: What does the source list for `N[C@@H](Cc1ccc(N(CCCl)CCCl)cc1)C(=O)O`?
A: max response [2]: inconclusive: -63.4% and inconclusive: -103%; Potency [4]: inconclusive: 36.1 µM [cytotoxic, single point]; Potency [6]: active: 9.07 µM; Potency [7]: inconclusive: 9.99 µM [falling, full curve]

Q: What does the source list for `CCNc1nc(Cl)nc(NCC)n1`?
A: activation [1]: inactive: -10.6%; activity change % (negative = inhibition) [5]: inactive: 3.97%; ratio activity, negative = inhibition [7]: inconclusive: -2.54%

Q: For `O=C(N[C@H]1N=C(c2ccccc2F)c2cccc3c2N(CC3)C1=O)c1cc2ccccc2[nH]1`, which Potency [8] is on record?
A: inconclusive: 6.42 µM [inhibitor, partial curve]

Q: Which results are given for `COC([CH2][Hg])CNC(=O)c1ccccc1OCC(=O)O` (stereo not drawn)?
A: Potency [8]: inconclusive: 8.09 µM [inhibitor, full curve]; Potency [6]: inconclusive: 36.1 µM [inhibitor, single point]; Potency [7]: inconclusive: 4.46 µM [falling, full curve, poor fit]

Q: Which Potency [8] does the source give for `CC(C)=CCOc1c2occc2cc2ccc(=O)oc12` here?
A: inactive

Q: And the Potency [9]?
A: inconclusive: 20 µM [inhibitor, partial curve, poor fit]

Q: What does the source list for `Oc1cc[c]([Hg][Cl])cc1`?
A: Potency [8]: active: 8.09 µM and active: 9.07 µM; Potency [4]: active: 1.14 µM; Potency [6]: active: 0.907 µM; Potency [7]: active: 2.24 µM

Q: Which Potency [8] does the source give for `C[C@@H]1[C@H](O)[C@@H](C)C=CC=CCCC=CC=CC=CC=C[C@H](O[C@H]2O[C@@H](C)[C@H](O)[C@@H](N)[C@@H]2O)CC2O[C@](O)(C[C@@H](O)[C@H](O)CC[C@@H](O)C[C@@H](O)C[C@@H](O)CC(=O)O[C@H]1C)C[C@H](O)[C@H]2C(=O)O` here?
A: inactive

Q: For `NCCc1ccc(O)cc1`, which activity change % (negative = inhibition) [5] is on record?
A: inactive: -4.83%

Q: What about the Potency [6] of the same molecule?
A: inactive

Q: And the Potency [9]?
A: inactive

Q: Which Potency [8] does the source give for `Oc1cccc[c]1[Hg][Cl]` here?
A: active: 10.2 µM

Q: What about the Potency [4] of the same molecule?
A: active: 1.28 µM

Q: What about the Potency [6] of the same molecule?
A: active: 0.642 µM

Q: And the Potency [7]?
A: active: 4.46 µM

Q: Which activity change % (negative = inhibition) [5] does the source give for `O=P1(N(CCCl)CCCl)NCCCO1` (stereo not drawn) here?
A: inconclusive: 13.1%

Q: For `Nc1ccc(Sc2ccc(N)cc2)cc1`, which Potency [8] is on record?
A: inconclusive: 59 µM [inhibitor, partial curve, poor fit]

Q: Which Potency [4] does the source give for `OC(c1ccccc1)(c1ccccc1)C1CCNCC1` here?
A: inactive

Q: For `ClC1C(Cl)C(Cl)C(Cl)C(Cl)C1Cl` (stereo not drawn), which activity change % (negative = inhibition) [5] is on record?
A: inactive: 0.744% [middle of 4 runs]

Q: With `CN(C)NC(=O)CCC(=O)O` as the molecule, how does the activity change % (negative = inhibition) [5] read?
A: inconclusive: -22.4%

Q: With `CCN(CC)CCOC(=O)C(C)(c1ccccc1)c1ccccc1` as the molecule, how does the Potency [4] read?
A: inactive

Q: Which Potency [8] does the source give for `O=C1OC(c2ccc(O)c(S(=O)(=O)O)c2)(c2ccc(O)c(S(=O)(=O)O)c2)c2c(Br)c(Br)c(Br)c(Br)c21` here?
A: active: 28.7 µM

Q: For `C=C1CC[C@@]2(O)[C@H]3Cc4ccc(O)c5c4[C@@]2(CCN3CC2CC2)[C@H]1O5`, which Potency [8] is on record?
A: inactive

Q: And the Potency [6]?
A: inactive

Q: With `Nc1ccc(N)cc1` as the molecule, how does the Potency [8] read?
A: inconclusive: 32.2 µM [inhibitor, partial curve]

Q: And the Potency [4]?
A: inconclusive: 36.1 µM [cytotoxic, single point]

Q: And the Potency [6]?
A: inconclusive: 2.87 µM [inhibitor, partial curve]
